# Assay results

The results are deposited in PubChem (AID1159506; NCATS, 2015).

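Luminescence from an EWS-FLI1 target-promoter (NR0B1) reporter, set against a CMV-promoter reporter, two days after silencing single genes in TC32 Ewing sarcoma cells.
Each siRNA was applied at 20 nM.
A z-score of the log NR0B1-over-CMV signal, less the median of siRNAs with the same seed; more negative means a stronger specific loss of the NR0B1 reporter.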

The strongest results of the screen are mostly left out here.
Sequences are the guide (antisense) strand, without overhang.

strand | gene | seed-corrected z-score
AUAUCUACAAGUCCAUUAC | FSTL5 | 0.8776
UUUCAGGUCGGGAAUGUGC | LOC645485 | -0.5395
UCCUUUGCAAGAUCUCAUG | LOC255187 | -0.01833
UUCUUUUAACUUGAAAGAG | LGALS2 | 0.3757
UGUUCUCAAAUCAACUUGG | HHIP | -0.3453
UCGGUGUAGAAAGGCCUGC | C8orf82 | -0.08121
UUCCGAUUCCUAGUCUUCC | NYX | -0.2325
UCGUCGAUUAAGGUAAGGG | CRB1 | 0.2837
UUUGUUAUGACUAGUUGUC | ZNF519 | 1.367
UUCGUUUUUGAGCUGUUGC | UAP1 | -0.02112
UACAUUACUAGGAGCAGGG | C17orf58 | -1.468
UGAUGAGCCUGAUUUUGGG | RPSAP22 | 1.592
UUCAUCUCCAAACCGAUUU | ASB9P1 | -0.3769
UUCCACACCACAGUCGUGU | FUZ | 0.2509
GAAGUUGUCGGGUUUAAUG | KALRN | -0.3106
UUGUCGUCUAUGAACUCUU | SCGB2A2 | -0.2278
UUUCCUACUAGGACCAUAG | KRAS | -1.254
UUCUGCAUCUCGUUGUUCC | BDKRB2 | -0.5873
AUUGUUCCAUUCAAAAUCG | GPC4 | 2.688
UGAGGAAUUUAGAGGAUUG | KRTAP4-11 | -0.2048
AACACGGCAAAGUUGAUUC | SHMT2 | -1.505
AUACUUGAGACGACCCUCC | YWHAZ | -0.5777
UCACCAAACUCUAAGUUGC | PODN | 0.05719
UUCCGUCCCUCUACGAUCG | RBFOX3 | 0.3475
UCAAAUUGAUGUCUUAUCC | LOC100289495 | 0.6223
UUCAUGCAACUGUAGUUUU | LOC79999 | -1.188
UGAUGUUGAAGUGGUAAGG | AGBL1 | -0.1507
UUAGAAUCCAAGUUUAAGG | RPP40 | -0.0935
UUCAUGACCAGCGGGAUCC | SFRP2 | -1.7
UGCCGUAUUUGUAAAGACG | PARD6B | -0.1272
UCUUGAUUGAAAUACCACC | HAUS8 | 0.4534
UCAGUAGGAAAUACAUGGG | OR2L8 | 0.9494
UUUCUUCAAGGGUAAAGGC | ME3 | 0.0266
AAAUUCGUCAAGCCUUUCC | ICE1 | 1.194
UACACUUUGAAGCUCUGGG | HSD17B1 | 0.2443
UGCGUGGUGAGAGCAUCGA | PRSS57 | -0.03817
AUUGUGAUCUGUAUUCGCC | ARHGAP5 | 0.321
UCUGGAAUAGGUGGUGUAG | PARVG | -1.697
AAUGGAAUGGGCUUCUUCC | NIPAL3 | -0.4791
UACUUUUGCACUCGGGCCU | ARX | 0.2423
AACUUAUCCACGAUGUUGC | CDC25B | -0.3652
UUUGGUGACAGACUGGGUG | ARHGAP17 | 0.7299
ACUGCUUUCCGUCUGAUCC | C1orf35 | -0.4499
UGAGCGAACAGAGUCCAUG | TUBB | -0.0867
UUACAUUUCAUUUGCAUGG | IGF2 | 1.618
AAUGUCAUGAGCAAAGGCG | NOS2 | -0.2768
UAUGAGAUUGAUGGGCACC | GSTZ1 | -0.6531
AAUUAGGUAAGUAUGGACG | UGT2A1 | -0.3082
UCAAUGAGCUUGCAGAUGC | NOD2 | 0.3377
UUCCUUAGGCUAUAUAUCA | OR2A14 | 0.06612
UUUGAGUAACAUUUGACAG | C1orf141 | -0.5044
AAGCAUAUCACGGAAUUCG | ANKRD1 | 1.159
UACGUAGCGACAGUGUCUG | PCYT1B | -0.4521
UCUCGUACACGUUCUGCUG | ZBTB7A | -1.443
AAGCCGAAUAGUGCAAGCC | NAGPA | 0.6751
UACUGUACAGGGUUCUCUU | WDR82P1 | -1.836
AAUGUUGUAAUAGCGUAGG | PIWIL3 | -0.6171
UCGUUCAUCAGCUUGAUCC | ABCC1 | -0.3849
AUAUGGUAGACUGUCACAG | IFITM1 | 1.244
UCUCCGAGAGUUUAUGUCC | ZER1 | 0.04348
UAGCAGAUCGGGCUGUUCC | NT5C1A | 1.363
UCAUUGACUGGAGAGACCU | CHMP7 | 0.4026
UCAGAUUACAGACUCGCUC | ALDH6A1 | -0.3793
UCGUGUACGAAAAUAAUAC | RABL3 | 0.5144
AAAUCGUUCCUUCAAGUGC | ANAPC5 | -0.3407
UUCAUGAAGCUGUAGAUCU | FOXN4 | 0.2004
UCCAUUCUCACAUUCGUCA | EGFEM1P | 0.5012
AGUGGGAUGACAAAGGUCU | PKN3 | -0.671
UCCAUUUCUAUGGACACGC | CATSPERG | -1.538
UUAAGAUUCUCUUUCGCAC | SPIRE1 | 1.651
UCUUGUCCCAGUCUCACUC | TAPBP | -1.899
AACGAUUGUUGAUUCGUGC | AKNAD1 | 0.2138
UCAAUUCCCAAAUGAUUCG | IDH1 | -0.4322

Repeated from the top, 5 entries:

Result for AUAUCUACAAGUCCAUUAC against FSTL5 was seed-corrected z-score 0.8776.
Result for UUUCAGGUCGGGAAUGUGC against LOC645485 was seed-corrected z-score -0.5395.
Result for UCCUUUGCAAGAUCUCAUG against LOC255187 was seed-corrected z-score -0.01833.
Result for UUCUUUUAACUUGAAAGAG against LGALS2 was seed-corrected z-score 0.3757.
Result for UGUUCUCAAAUCAACUUGG against HHIP was seed-corrected z-score -0.3453.